No constants are given. Whether binding was seen depends on the method and setting. Some binding calls cover weakened binding; strength is not graded here.
T1: UBR box of Arabidopsis thaliana PRT6 (AtPRT6-UBR) (Arabidopsis thaliana) (UniProt F4KCC2)
T1 sequence: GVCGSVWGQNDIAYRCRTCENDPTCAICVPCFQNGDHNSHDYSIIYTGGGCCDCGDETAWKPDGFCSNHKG


Molecular target: T1, UBR box of Arabidopsis thaliana PRT6 (AtPRT6-UBR) (Arabidopsis thaliana)
Assay: crystal structure

Binder | binding
RLGSGG [RLGSGG N-degron sequence (RL-peptide of the AtPRT6 crystals)] | binds
RRGSGG [RRGSGG N-degron sequence (RR-peptide)] | binds
